Numbering of substitutions follows the chain as printed. No constants are given. Whether binding was seen depends on the method and setting. Binding seen in cells or lysates may run through a third protein. Some entries that bind do so weakly or less than the wild type. Where a sequence is shown, tags or fusion partners need not be part of it.

Protein sequences, listed by entry. Tags and fused reporters are not part of them. Lines headed by an entry give the natural chain unless they say otherwise; changes in a name come on top.
UniProt P27112: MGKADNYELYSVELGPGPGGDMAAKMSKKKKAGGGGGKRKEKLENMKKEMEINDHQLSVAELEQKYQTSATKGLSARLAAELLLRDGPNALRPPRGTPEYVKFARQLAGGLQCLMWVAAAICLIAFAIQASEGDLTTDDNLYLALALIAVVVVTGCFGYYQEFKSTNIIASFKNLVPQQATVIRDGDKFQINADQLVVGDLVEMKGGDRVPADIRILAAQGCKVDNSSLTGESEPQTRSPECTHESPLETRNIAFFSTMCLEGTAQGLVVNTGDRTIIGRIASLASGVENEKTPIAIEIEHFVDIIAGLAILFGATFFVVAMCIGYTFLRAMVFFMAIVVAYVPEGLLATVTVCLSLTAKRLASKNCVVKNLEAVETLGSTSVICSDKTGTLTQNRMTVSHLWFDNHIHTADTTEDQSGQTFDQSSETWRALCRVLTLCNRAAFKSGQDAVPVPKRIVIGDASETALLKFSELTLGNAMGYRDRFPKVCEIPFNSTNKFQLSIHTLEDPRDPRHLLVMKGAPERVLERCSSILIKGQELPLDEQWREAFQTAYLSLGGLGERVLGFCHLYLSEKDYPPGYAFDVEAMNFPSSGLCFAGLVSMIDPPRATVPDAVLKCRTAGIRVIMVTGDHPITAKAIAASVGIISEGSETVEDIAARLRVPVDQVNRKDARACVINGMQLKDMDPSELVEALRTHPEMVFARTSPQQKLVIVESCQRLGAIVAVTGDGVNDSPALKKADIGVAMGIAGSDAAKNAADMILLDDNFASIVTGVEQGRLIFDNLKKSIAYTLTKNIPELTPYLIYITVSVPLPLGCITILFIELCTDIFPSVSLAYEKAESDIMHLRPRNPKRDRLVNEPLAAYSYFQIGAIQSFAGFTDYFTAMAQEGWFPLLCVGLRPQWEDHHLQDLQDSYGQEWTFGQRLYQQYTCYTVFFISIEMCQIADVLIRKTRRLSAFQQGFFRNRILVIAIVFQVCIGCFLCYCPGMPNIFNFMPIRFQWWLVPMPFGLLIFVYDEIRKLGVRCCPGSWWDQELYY

Experiment [1] deals with T1, E211A-ClC-5 (rat ClC-5 mutant, Xpress- and His-tagged) (rat) (UniProt P51796).
T1 sequence: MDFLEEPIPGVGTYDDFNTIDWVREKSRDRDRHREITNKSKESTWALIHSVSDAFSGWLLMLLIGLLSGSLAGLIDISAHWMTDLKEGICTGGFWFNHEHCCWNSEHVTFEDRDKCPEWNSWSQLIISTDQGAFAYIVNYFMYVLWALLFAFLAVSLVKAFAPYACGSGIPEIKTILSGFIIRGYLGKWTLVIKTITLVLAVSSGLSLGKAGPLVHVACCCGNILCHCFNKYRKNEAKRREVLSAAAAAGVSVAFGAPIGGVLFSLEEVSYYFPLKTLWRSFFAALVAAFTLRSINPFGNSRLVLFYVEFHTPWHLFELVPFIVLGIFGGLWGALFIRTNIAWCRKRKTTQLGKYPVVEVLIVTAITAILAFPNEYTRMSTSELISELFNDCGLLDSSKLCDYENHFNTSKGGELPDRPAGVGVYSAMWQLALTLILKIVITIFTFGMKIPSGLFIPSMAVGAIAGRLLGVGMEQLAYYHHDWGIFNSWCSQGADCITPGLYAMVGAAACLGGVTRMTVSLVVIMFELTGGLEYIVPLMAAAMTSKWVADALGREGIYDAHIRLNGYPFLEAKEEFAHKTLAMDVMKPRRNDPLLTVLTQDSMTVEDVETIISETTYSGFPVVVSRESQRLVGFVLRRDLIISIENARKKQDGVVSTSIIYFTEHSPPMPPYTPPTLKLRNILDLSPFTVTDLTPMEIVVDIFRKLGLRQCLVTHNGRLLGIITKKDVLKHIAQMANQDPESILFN
In words: co-IP; detergent extract (1% Nonidet P-40, 150 mM NaCl, 0.5 mM EDTA, 50 mM Tris-HCl pH 7.4) of membrane fractions of Tet-on HEK293 cells; anti-His tag antibody (for ClC-5) and protein A-agarose, 4°C; control without antibody; Western blot with anti-Xpress, anti-HKα (1H9), anti-NKα1. For orientation: A western blot detects proteins with antibodies after separation by electrophoresis.

Experiment [2] addresses T2, WT-ClC-5 (rat ClC-5, Xpress- and His-tagged) (rat) (UniProt P51796).
T2 sequence: T1 sequence with A211E
Described as above.

Take “gastric H+,K+-ATPase (α- and β-subunits) stably expressed in HEK293 cells (from UniProt P27112 1-1035; P18597 1-291) (complex)”: the binding result in experiment [1] and in experiment [2] was “binds” throughout.

Source of the values: PMC3892156.
